Results reported in patent publication US12535491B2, “Vaccine comprising protein-targeted (PT) extracellular DNA isolated from bacterial matrix” (priority 2018, dated 2026).

System: heat-resistant proteins of human plasma
Test: LC/MS of heat-resistant proteins in plasma after exposure to proteinase K and boiling
Details: for N-plasma + pK: healthy human blood plasma after incubation for 30 minutes with Proteinase K, following heating for 100° C. for 5 minutes (probe_2)

B1: ALS_HUMAN (protein, UniProt P35858 28-605, looked up)
Insulin-like growth …: ADPGTPGEAEGPACPAACVCSYDDDADELSVFCSSRNLTRLPDGVPGGTQALWLDGNNLSSVPPAAFQNLSSLGFLNLQGGQLGSLEPQALLGLENLCHLHLERNQLRSLALGTFAHTPALASLGLSNNRLSRLEDGLFEGLGSLWDLNLGWNSLAVLPDAAFRGLGSLRELVLAGNRLAYLQPALFSGLAELRELDLSRNALRAIKANVFVQLPRLQKLYLDRNLIAAVAPGAFLGLKALRWLDLSHNRVAGLLEDTFPGLLGLRVLRLSHNAIASLRPRTFKDLHFLEELQLGHNRIRQLAERSFEGLGQLEVLTLDHNQLQEVKAGAFLGLTNVAVMNLSGNCLRNLPEQVFRGLGKLHSLHLEGSCLGRIRPHTFTGLSGLRRLFLKDNGLVGIEEQSLWGLAELLELDLTSNQLTHLPHRLFQGLGKLEYLLLSRNRLAELPADALGPLQRAFWLDVSHNRLEALPNSLLAPLGRLRYLSLRNNSLRTFTPQPPGLERLWLEGNPWDCGCPLKALRDFALQNPSAVPRFVQAICEGDDCQPPAYTYNNITCASPPEVVGLDLRDLSEAHFAPC
N-plasma + pK (LC/MS): 2

B2: IGHA1_HUMAN [2] (protein, UniProt P01876 1-398, looked up)
Immunoglobulin heavy constant …: ASPTSPKVFPLSLCSTQPDGNVVIACLVQGFFPQEPLSVTWSESGQGVTARNFPPSQDASGDLYTTSSQLTLPATQCLAGKSVTCHVKHYTNPSQDVTVPCPVPSTPPTPSPSTPPTPSPSCCHPRLSLHRPALEDLLLGSEANLTCTLTGLRDASGVTFTWTPSSGKSAVQGPPERDLCGCYSVSSVLPGCAEPWNHGKTFTCTAAYPESKTPLTATLSKSGNTFRPEVHLLPPPSEELALNELVTLTCLARGFSPKDVLVRWLQGSQELPREKYLTWASRQEPSQGTTTFAVTSILRVAAEDWKKGDTFSCMVGHEALPLAFTQKTIDRLADWQMPPPYVVLDLPQETLEEETPGANLWPTTITFLTLFLLSLFYSTALTVTSVRGPSGNREGPQY
N-plasma + pk (LC/MS, control plasma with added proteinase K, heated at 100° C. for 5 minutes): 36 | Effect (N-plasma + pk vs N-plasma) (change on adding proteinase K to normal plasma): ↑

B3: LV310_HUMAN (protein, UniProt A0A075B6K4 20-115, looked up)
Immunoglobulin lambda …: SYELTQPPSVSVSPGQTARITCSGDALPKKYAYWYQQKSGQAPVLVIYEDSKRPSGIPERFSGSSSGTMATLTISGAQVEDEADYYCYSTDSSGNH
N-plasma + pK (LC/MS): 1

B4: CD5L_HUMAN (protein, UniProt O43866 20-347, looked up)
CD5 antigen-like: SPSGVRLVGGLHRCEGRVEVEQKGQWGTVCDDGWDIKDVAVLCRELGCGAASGTPSGILYEPPAEKEQKVLIQSVSCTGTEDTLAQCEQEEVYDCSHDEDAGASCENPESSFSPVPEGVRLADGPGHCKGRVEVKHQNQWYTVCQTGWSLRAAKVVCRQLGCGRAVLTQKRCNKHAYGRKPIWLSQMSCSGREATLQDCPSGPWGKNTCNHDEDTWVECEDPFDLRLVGGDNLCSGRLEVLHKGVWGSVCDDNWGEKEDQVVCKQLGCGKSLSPSFRDRKCYGPGVGRIWLDNVRCSGEEQSLEQCQHRFWGFHDCTHQEDVAVICSG
N-plasma + pK (LC/MS): 9

B5: C4BPA_HUMAN (protein, UniProt P04003 49-597, looked up)
C4b-binding protein alpha …: NCGPPPTLSFAAPMDITLTETRFKTGTTLKYTCLPGYVRSHSTQTLTCNSDGEWVYNTFCIYKRCRHPGELRNGQVEIKTDLSFGSQIEFSCSEGFFLIGSTTSRCEVQDRGVGWSHPLPQCEIVKCKPPPDIRNGRHSGEENFYAYGFSVTYSCDPRFSLLGHASISCTVENETIGVWRPSPPTCEKITCRKPDVSHGEMVSGFGPIYNYKDTIVFKCQKGFVLRGSSVIHCDADSKWNPSPPACEPNSCINLPDIPHASWETYPRPTKEDVYVVGTVLRYRCHPGYKPTTDEPTTVICQKNLRWTPYQGCEALCCPEPKLNNGEITQHRKSRPANHCVYFYGDEISFSCHETSRFSAICQGDGTWSPRTPSCGDICNFPPKIAHGHYKQSSSYSFFKEEIIYECDKGYILVGQAKLSCSYSHWSAPAPQCKALCRKPELVNGRLSVDKDQYVEPENVTIQCDSGYGVVGPQSITCSGNRTWYPEVPKCEWETPEGCEQVLTGKRLMQCLPNPEDVKMALEVYKLSLEIEQLELQRDSARQSTLDKEL
N-plasma + pK (LC/MS): 10

B6: F13B_HUMAN (protein, UniProt P05160 21-661, looked up)
Coagulation factor XIII B …: EEKPCGFPHVENGRIAQYYYTFKSFYFPMSIDKKLSFFCLAGYTTESGRQEEQTTCTTEGWSPEPRCFKKCTKPDLSNGYISDVKLLYKIQENMRYGCASGYKTTGGKDEEVVQCLSDGWSSQPTCRKEHETCLAPELYNGNYSTTQKTFKVKDKVQYECATGYYTAGGKKTEEVECLTYGWSLTPKCTKLKCSSLRLIENGYFHPVKQTYEEGDVVQFFCHENYYLSGSDLIQCYNFGWYPESPVCEGRRNRCPPPPLPINSKIQTHSTTYRHGEIVHIECELNFEIHGSAEIRCEDGKWTEPPKCIEGQEKVACEEPPFIENGAANLHSKIYYNGDKVTYACKSGYLLHGSNEITCNRGKWTLPPECVENNENCKHPPVVMNGAVADGILASYATGSSVEYRCNEYYLLRGSKISRCEQGKWSSPPVCLEPCTVNVDYMNRNNIEMKWKYEGKVLHGDLIDFVCKQGYDLSPLTPLSELSVQCNRGEVKYPLCTRKESKGMCTSPPLIKHGVIISSTVDTYENGSSVEYRCFDHHFLEGSREAYCLDGMWTTPPLCLEPCTLSFTEMEKNNLLLKWDFDNRPHILHGEYIEFICRGDTYPAELYITGSILRMQCDRGQLKYPRCIPRQSTLSYQEPLRT
N-plasma + pK (LC/MS): 4

B7: PGRP2_HUMAN (protein, UniProt Q96PD5 22-576, looked up)
N-acetylmuramoyl-L-alanine …: SLPLLMDSVIQALAELEQKVPAAKTRHTASAWLMSAPNSGPHNRLYHFLLGAWSLNATELDPCPLSPELLGLTKEVARHDVREGKEYGVVLAPDGSTVAVEPLLAGLEAGLQGRRVINLPLDSMAAPWETGDTFPDVVAIAPDVRATSSPGLRDGSPDVTTADIGANTPDATKGCPDVQASLPDAKAKSPPTMVDSLLAVTLAGNLGLTFLRGSQTQSHPDLGTEGCWDQLSAPRTFTLLDPKASLLTMAFLNGALDGVILGDYLSRTPEPRPSLSHLLSQYYGAGVARDPGFRSNFRRQNGAALTSASILAQQVWGTLVLLQRLEPVHLQLQCMSQEQLAQVAANATKEFTEAFLGCPAIHPRCRWGAAPYRGRPKLLQLPLGFLYVHHTYVPAPPCTDFTRCAANMRSMQRYHQDTQGWGDIGYSFVVGSDGYVYEGRGWHWVGAHTLGHNSRGFGVAIVGNYTAALPTEAALRTVRDTLPSCAVRAGLLRPDYALLGHRQLVRTDCPGDALFDLLRTWPHFTATVKPRPARSVSKRSRREPPPRTLPATDLQ
N-plasma + pK (LC/MS): 5

B8: HV372_HUMAN (protein, UniProt A0A0B4J1Y9 20-119, looked up)
Immunoglobulin heavy variable …: EVQLVESGGGLVQPGGSLRLSCAASGFTFSDHYMDWVRQAPGKGLEWVGRTRNKANSYTTEYAASVKGRFTISRDDSKNSLYLQMNSLKTEDTAVYYCAR
N-plasma + pK (LC/MS): 1
